These are yes or no findings as the source states them, for the method shown. In cells and extracts the contact can be indirect. Some binding calls cover weakened binding; strength is not graded here.
Target: T1, SEPT9-mNeonGreen (mouse (endogenous in colonic epithelial cells of knockin mice)) (UniProt Q80UG5)
T1 sequence: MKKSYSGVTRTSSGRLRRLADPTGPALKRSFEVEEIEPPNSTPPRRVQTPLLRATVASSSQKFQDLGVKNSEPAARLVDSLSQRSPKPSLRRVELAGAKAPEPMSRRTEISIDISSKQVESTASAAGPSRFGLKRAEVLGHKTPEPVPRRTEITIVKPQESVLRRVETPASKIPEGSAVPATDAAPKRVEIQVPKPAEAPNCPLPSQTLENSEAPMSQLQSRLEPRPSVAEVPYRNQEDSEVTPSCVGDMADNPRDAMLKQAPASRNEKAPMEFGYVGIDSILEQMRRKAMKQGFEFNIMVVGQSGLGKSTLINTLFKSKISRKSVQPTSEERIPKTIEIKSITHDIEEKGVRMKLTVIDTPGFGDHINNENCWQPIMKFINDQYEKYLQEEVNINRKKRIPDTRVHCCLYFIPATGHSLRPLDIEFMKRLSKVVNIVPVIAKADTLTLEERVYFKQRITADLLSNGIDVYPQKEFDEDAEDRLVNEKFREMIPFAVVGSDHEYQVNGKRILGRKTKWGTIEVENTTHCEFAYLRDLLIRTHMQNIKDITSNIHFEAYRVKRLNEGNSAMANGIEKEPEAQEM
Assay: co-IP; mouse colonic epithelial cells of SEPT9^mNG knockin mice isolated, lysed and incubated with anti-mNeonGreen-conjugated magnetic beads; immunoblot; SEPT9^fl/fl mice as control

The chains behind the UniProt entries cited, without tags or fusion partners.
UniProt Q6URW6: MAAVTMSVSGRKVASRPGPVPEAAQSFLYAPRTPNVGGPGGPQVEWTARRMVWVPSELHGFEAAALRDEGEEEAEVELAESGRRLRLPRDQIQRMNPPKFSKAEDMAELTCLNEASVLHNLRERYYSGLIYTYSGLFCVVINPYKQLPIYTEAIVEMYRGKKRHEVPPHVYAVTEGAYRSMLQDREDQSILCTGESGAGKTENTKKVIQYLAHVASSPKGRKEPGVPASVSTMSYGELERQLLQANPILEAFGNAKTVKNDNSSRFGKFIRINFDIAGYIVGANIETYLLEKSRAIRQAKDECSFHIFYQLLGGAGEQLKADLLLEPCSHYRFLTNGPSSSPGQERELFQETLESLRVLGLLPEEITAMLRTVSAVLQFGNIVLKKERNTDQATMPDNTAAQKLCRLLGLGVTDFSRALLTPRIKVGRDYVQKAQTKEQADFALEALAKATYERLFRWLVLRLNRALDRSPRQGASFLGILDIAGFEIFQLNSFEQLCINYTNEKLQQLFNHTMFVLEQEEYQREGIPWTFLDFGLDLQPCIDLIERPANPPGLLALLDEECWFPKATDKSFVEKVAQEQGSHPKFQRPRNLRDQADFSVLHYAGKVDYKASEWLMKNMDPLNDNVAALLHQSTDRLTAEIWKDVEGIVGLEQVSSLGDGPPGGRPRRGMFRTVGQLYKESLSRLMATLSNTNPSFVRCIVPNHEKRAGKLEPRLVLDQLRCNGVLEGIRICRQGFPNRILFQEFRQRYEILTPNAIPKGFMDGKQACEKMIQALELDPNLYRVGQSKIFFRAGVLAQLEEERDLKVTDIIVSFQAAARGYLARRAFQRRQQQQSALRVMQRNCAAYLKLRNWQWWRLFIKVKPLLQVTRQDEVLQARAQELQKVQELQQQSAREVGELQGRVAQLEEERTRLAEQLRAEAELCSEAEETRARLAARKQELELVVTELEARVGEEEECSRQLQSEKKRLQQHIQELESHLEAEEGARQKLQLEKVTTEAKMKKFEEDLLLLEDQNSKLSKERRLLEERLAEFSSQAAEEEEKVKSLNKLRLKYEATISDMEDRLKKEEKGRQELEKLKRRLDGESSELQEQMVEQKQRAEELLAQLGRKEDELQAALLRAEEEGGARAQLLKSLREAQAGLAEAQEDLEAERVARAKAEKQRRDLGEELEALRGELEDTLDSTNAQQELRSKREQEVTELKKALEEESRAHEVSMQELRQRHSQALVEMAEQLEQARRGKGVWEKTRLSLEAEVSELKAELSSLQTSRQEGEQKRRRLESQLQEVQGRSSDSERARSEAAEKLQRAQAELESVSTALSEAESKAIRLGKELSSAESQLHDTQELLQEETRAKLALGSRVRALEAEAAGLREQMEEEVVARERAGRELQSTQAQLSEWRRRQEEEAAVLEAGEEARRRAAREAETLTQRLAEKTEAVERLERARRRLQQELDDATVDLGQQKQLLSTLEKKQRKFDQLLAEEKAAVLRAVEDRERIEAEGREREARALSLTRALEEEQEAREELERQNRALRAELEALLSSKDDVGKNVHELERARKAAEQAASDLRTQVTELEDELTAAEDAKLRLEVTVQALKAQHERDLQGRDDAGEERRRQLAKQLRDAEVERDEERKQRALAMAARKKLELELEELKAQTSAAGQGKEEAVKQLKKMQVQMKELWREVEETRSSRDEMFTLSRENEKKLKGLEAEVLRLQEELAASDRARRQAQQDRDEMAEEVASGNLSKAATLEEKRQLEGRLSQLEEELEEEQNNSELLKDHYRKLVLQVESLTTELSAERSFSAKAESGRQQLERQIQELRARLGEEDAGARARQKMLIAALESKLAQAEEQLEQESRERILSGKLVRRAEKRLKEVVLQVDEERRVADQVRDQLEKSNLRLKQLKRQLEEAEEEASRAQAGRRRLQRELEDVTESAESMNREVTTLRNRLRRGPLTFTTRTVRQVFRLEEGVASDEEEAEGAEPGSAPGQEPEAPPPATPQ

Molecule: nonmuscle myosin IIC (mouse) (from UniProt Q6URW6 1-2000)
- binding: binds

B1: SEPT7 (protein, UniProt O55131 1-436)
chain: MSVSARSAAAEERSVNCGTMAQPKNLEGYVGFANLPNQVYRKSVKRGFEFTLMVVGESGLGKSTLINSLFLTDLYSPEYPGPSHRIKKTVQVEQSKVLIKEGGVQLLLTIVDTPGFGDAVDNSNCWQPVIDYIDSKFEDYLNAESRVNRRQMPDNRVQCCLYFIAPSGHGLKPLDIEFMKRLHEKVNIIPLIAKADTLTPEECQQFKKQIMKEIQEHKIKIYEFPETDDEEENKLVKKIKDRLPLAVVGSNTIIEVNGKRVRGRQYPWGVAEVENGEHCDFTILRNMLIRTHMQDLKDVTNNVHYENYRSRKLAAVTYNGVDNNKNKGQLTKSPLAQMEEERREHVAKMKKMEMEMEQVFEMKVKEKVQKLKDSEAELQRRHEQMKKNLEAQHKELEEKRRQFEEEKANWEAQQRILEQQNSSRTLEKNKKKGKIF
- binding: binds

— publication PMC12643519
